Results are given in words; binding and its absence hold for the method and conditions named. Binding seen in cells or lysates may run through a third protein. Binding calls can cover weak binding; strength is not graded here.
Target: HA-TRIM28 (human) (UniProt Q13263)
Assay: co-IP; IP with co-expressed XAF1 (WT or ΔZF7), equal amount of ZNF313 input (Fig. 5h) or of HA-TRIM28 input (Fig. S5f); cells not given

The chains behind the UniProt entries cited, without tags or fusion partners. Where a name states a change or a piece, a line headed by the entry shows the natural chain unless it says otherwise.
UniProt Q13263: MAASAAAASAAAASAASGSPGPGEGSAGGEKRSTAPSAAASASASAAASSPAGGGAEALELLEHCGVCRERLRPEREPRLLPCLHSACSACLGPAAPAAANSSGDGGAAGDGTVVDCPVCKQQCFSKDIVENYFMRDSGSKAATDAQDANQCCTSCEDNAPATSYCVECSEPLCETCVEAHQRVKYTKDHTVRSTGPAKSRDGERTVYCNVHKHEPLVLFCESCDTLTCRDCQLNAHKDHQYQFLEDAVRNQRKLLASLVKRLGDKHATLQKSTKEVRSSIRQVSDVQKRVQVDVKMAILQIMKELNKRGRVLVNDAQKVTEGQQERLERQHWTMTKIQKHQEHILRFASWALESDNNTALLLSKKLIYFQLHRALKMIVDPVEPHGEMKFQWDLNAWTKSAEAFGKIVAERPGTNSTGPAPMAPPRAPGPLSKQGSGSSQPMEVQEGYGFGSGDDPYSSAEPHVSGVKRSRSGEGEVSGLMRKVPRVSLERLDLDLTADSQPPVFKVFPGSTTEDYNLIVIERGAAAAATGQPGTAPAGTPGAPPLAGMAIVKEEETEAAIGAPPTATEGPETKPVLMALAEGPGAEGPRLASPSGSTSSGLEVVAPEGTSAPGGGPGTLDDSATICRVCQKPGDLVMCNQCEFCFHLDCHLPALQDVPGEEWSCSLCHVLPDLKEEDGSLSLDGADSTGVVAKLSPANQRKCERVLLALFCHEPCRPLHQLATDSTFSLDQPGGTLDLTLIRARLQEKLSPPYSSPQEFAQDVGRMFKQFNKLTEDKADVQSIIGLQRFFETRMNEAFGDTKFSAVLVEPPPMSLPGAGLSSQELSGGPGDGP
UniProt Q6GPH4: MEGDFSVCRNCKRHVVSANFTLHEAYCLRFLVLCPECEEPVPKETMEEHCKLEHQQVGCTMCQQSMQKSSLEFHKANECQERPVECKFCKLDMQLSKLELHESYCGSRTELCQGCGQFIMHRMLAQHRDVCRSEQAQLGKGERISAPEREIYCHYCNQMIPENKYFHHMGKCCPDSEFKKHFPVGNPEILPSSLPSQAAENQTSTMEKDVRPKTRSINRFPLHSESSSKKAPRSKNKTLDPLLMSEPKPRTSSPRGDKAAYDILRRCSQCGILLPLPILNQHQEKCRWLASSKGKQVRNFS

Question: With ΔZF7-XAF1 (from UniProt Q6GPH4) as the substance, how does the binding read?
Answer: Its binding is “binds”.

— publication PMC11557793
